Over roughly 33,000 sequences, “E-score (-0.5 to 0.5)” has its median near -0.015; the highest 2% begin near 0.3. Some of the results follow.
Target: T1, Abf1 (UniProt P14164)
T1 sequence: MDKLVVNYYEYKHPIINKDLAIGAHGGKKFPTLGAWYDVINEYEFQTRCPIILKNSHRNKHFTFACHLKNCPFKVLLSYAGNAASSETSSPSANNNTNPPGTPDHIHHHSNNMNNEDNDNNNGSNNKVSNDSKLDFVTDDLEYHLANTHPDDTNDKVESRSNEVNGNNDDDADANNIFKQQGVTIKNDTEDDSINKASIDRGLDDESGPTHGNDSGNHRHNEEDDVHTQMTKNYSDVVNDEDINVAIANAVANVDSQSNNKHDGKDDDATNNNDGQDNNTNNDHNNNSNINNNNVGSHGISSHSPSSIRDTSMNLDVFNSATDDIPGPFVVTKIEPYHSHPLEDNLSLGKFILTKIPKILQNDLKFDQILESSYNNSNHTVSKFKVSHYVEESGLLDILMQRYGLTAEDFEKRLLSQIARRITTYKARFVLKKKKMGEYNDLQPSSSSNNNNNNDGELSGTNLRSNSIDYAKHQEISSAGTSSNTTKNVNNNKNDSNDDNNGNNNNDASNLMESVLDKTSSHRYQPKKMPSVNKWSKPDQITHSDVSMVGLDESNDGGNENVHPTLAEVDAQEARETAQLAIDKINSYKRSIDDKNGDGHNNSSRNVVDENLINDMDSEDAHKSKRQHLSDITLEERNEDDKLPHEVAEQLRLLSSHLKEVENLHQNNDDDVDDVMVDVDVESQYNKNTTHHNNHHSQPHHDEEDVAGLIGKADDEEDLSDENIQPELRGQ
Assay: PBM E-score (8-mer binding enrichment) (E-score (-0.5 to 0.5)); higher = stronger / more preferred TF binding
Conditions: protein concentration: 200 nM; construct: GST-full length
Protocol: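 Universal 'all 10-mer' protein binding microarrays (Agilent AMADID 015681) probed with GST-tagged S. cerevisiae TFs (full-length or DBD) made by in vitro transcription/translation (PURExpress), about 100-200 nM. Bound TF was detected with fluorescent anti-GST. Each ungapped 8-mer (which stands for itself and its reverse complement) is scored by the PBM enrichment score (E-score), a modified Wilcoxon-Mann-Whitney statistic from -0.5 to +0.5, computed with the Universal PBM Analysis Suite. Scale: above 0.35 generally sequence-specific binding.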

Sequence | PBM E-score
GAGGAGCC | -0.0802
ATATCGCG | 0.382
AACGGAGA | -0.0536
ACTCCAGG | -0.142
GCTAGTAA | -0.0435
CAATCTAA | -0.0367
AGTGTATA | -0.0847
GAGTTCGC | 0.0063
GACCGGTA | -0.12
AAACTACT | 0.118
CGCGTGAG | 0.00035
AGCGAGCT | 0.0323
AGGTTCAC | -0.0626
AGTGAATC | -0.156
AAGGACCT | -0.037
CGGTTAAG | 0.0216
CCGATCTC | -0.187
CGGTACAG | -0.11
CGATGACG | 0.136
GCCAGTCA | -0.00571
ACTCAGTC | -0.2
CACATCCG | -0.119
GAATCCCC | -0.185
GCAAGAGC | -0.0192
GCAGGGCA | -0.0532

Sequence | PBM E-score
ACGCTCAG | -0.151
AAAACATG | -0.0223
CAGTTACA | 0.107
AGCATAAT | 0.199
GCCCTCTA | -0.224
GCGATTCA | 0.131
AGCTGATC | 0.138
CTCTCGAC | -0.233
CACTGTGA | 0.057
CTCTTGAA | -0.0403
AGATATCG | 0.11
AGGGACCG | -0.0817
CGACGGGA | 0.0357
AGTAGTAA | 0.0953
AGGAGCGA | 0.00316
ATTGGTCA | 0.0586
ATCCGGCA | -0.192
ATGACTAG | 0.054
AATTAGAC | 0.0434
AGTCGAGA | 0.167
ATCATCGA | 0.175
TACGCAAA | -0.163
ATAGAACG | 0.124
TCAACGGA | 0.0616
CAACGATC | 0.103

Sequence | PBM E-score
AAAGGCAG | 0.17
TAGTGGCA | -0.0295
GATCGCGC | 0.121
TCCCTAGA | 0.146
AAGAGGCT | -0.148
ACATCTTC | -0.0131
GGTCGGCA | -0.183
CACGATAA | 0.296
CATGCCGC | 0.14
CAACCTGA | -0.0696
CGTTCATA | 0.247
ACCTGGCC | -0.0752
CATATACG | 0.217
ACGGAAAC | 0.04
ACCGTTAA | 0.235
GAGTTTGA | -0.128
AACAAGGA | 0.0142
GGAGCTCC | -0.271
CCTGGGCG | -0.103
ATTTATCG | 0.222
CGAGTGCC | -0.244
CCTAGCTA | -0.21
CCTACCAG | -0.297
GCATACTA | 0.00916
TGAAATCA | 0.226

Sequence | PBM E-score
CCGGGTCA | -0.186
CAGAAAGA | 0.0742
CACATTTA | 0.108
CGTTTGGC | 0.0893
AGGTTGTG | -0.0254
ATGGCCGC | -0.281
CACGTAGA | 0.0411
CCCATTCA | -0.164
ACTTGAAA | 0.0258
ATACAACC | -0.264
ACCGATGA | 0.0528
CGACTAAC | -0.0263
GAACCCCA | -0.281
ACTATGCG | 0.00988
GCGTACAA | 0.197
CACGGCTC | 0.151
GGGCAAGA | 0.0711
ACTCAGCG | 0.0541
CTCGCATC | 0.00256
AGCATGAA | -0.063
AATGGTCT | -0.0813
ATGACCTC | 0.124
GATTAGAA | 0.0552
CATGTACA | -0.0299
CCGTTTAC | -0.0155

Sequence | PBM E-score
CTTCAGAC | 0.0482
CTATGTTA | 0.00457
AATTGGCG | 0.0955
CCGTGACG | 0.198
AACTGCGC | -0.199
AGGGGAAA | -0.137
ATTACTCC | 0.0358
AAGATTGT | 0.0671
AAGATTTG | 0.109
CAACGTCC | -0.147
GTAGCCAC | -0.0901
GATGATGA | 0.223
CTATTTGC | -0.106
GAGTAGGA | -0.135
AAGATATC | 0.201
CAACTAGA | -0.0511
CTTATATA | 0.192
AAATTACA | 0.106
CGCACTTC | -0.0888
GCGGCTTA | -0.276
GTCAAATA | 0.169
CCTCGTTA | 0.122
CTTTCAGC | -0.0533
GCCGAGAA | 0.0108
AGTTTCTA | -0.0871

Sequence | PBM E-score
CAAGCACC | -0.12
GACTCGAC | -0.129
CTTACCTA | -0.0785
CTCCAAAA | -0.169
CGGCTATA | 0.0716
AACCCCTT | -0.142
TCGATTAA | 0.0311
AGTGCGCC | 0.0331
CTAGCGCC | 0.0207
ACCACACG | 0.183
GCCTGGTA | -0.00699
CATGGAGG | -0.286
GGTCTAAC | -0.277
CACTACCA | 0.124
AAGTGTGC | 0.0477
GCTGTTAC | -0.136
GTAGAGAC | -0.14
AACCAACT | 0.0493
ATTTGGTC | 0.0338
ACATAACC | -0.0487
CAGCGTGG | -0.0616
CCTTTTGA | 0.0587
ACGCATCC | -0.113
ATCCCATA | -0.107
CAAGTTGG | -0.0662

Sequence | PBM E-score
CCCGACAC | -0.283
CATGGTCC | -0.211
AGTCACAA | 0.241
ATACTGCG | 0.0144
GCAAGCCC | -0.191
CATGCGGC | -0.229
ATAGCAAA | -0.0407
GTATGAGA | 0.145
CCAAGCGA | -0.0908
ATGAGGAA | -0.0977
AAGCGCGG | -0.173
GGTACAGA | 0.00644
CAAGATAG | -0.0192
CACTCTCC | -0.0372
CCTTAATA | -0.125
GATGCATA | 0.017
CCCCCCCA | -0.343
ACTGGTGA | 0.141
GACCGCGA | -0.0117
CCACTCAC | 0.0626
CATCCTGC | -0.0653
GCGATTAC | 0.0444

— the supplement of paper PMC3334620
